Measurements from article PMC4368784.
Results are given in words; binding and its absence hold for the method and conditions named. In cells and extracts the contact can be indirect. Binding calls can cover weak binding; strength is not graded here.

By UniProt entry, the sequences of proteins in these tests, tags left out. Where a name states a change or a piece, a line headed by the entry shows the natural chain unless it says otherwise.
UniProt Q7S9R0: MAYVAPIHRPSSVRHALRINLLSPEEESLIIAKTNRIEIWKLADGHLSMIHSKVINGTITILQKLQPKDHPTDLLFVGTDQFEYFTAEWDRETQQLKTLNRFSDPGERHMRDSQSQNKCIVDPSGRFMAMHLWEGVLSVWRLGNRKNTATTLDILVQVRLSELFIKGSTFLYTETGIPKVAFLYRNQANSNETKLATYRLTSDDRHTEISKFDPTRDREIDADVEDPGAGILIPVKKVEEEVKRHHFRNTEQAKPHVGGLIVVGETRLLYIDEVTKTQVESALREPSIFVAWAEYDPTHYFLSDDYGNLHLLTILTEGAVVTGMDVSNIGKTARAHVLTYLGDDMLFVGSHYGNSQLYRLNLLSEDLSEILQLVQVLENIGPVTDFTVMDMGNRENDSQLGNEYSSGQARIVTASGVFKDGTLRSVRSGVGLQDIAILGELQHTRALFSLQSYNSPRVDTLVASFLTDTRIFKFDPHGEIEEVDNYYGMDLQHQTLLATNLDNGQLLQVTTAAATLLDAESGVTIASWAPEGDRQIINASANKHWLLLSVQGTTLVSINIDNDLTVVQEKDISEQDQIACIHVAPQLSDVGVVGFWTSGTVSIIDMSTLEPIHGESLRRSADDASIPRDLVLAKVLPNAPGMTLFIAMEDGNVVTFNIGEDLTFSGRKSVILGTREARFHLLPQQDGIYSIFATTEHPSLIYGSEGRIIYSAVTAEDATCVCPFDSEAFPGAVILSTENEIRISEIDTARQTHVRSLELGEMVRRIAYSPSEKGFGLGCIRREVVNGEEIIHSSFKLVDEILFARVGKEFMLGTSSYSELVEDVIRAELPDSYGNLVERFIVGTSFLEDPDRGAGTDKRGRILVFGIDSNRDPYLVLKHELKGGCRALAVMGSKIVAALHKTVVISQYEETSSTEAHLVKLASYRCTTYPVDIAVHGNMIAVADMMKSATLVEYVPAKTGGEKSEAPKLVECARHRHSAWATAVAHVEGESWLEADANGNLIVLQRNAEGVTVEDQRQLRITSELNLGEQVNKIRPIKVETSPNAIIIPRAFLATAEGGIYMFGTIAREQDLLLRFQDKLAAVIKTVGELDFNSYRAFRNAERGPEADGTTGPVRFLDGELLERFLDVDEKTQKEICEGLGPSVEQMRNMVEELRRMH

Biological target: DDB1-3xFLAG (N. crassa) (UniProt Q7S9R0)
Experiment: co-IP; anti-FLAG immunoprecipitation of 3xFLAG-tagged DCDC members from nuclei of dim-3+ (WT) and dim-3 N. crassa strains; partner detected by western blot and normalised to bait level

- binding: binds
B1: DIM-9-3xHA (protein, UniProt Q7RVP2 1-943)
chain: MNSRPGDPARDPLTNGSSIAPGNTQSHGFLVEAQQRHQPDNLEHPPFKRQRTETVPATAPTINNQIQQNGNSQTVPHWGRQDVFIQCLANQVFPHVDRELANLPRDKYDVQKIGTKVVEIVTGADFTAAYKLGNGRVSDAFERLLAARIPVETRALLMLPEYRFKSYTPVPVPKVPPVLAPPQAPSGYASAPLPPPPPRPGSAIAPTFPAADERRYSNSPIPLPAVPGRQEAYRGVNPPSGLRYPHAPVPSHATTGIHRPTILPPPPSTQVITIKDDDEEKQGKGTPSAAITVPQPNSTVRPPMVLDPPSASVTQPSVSNLPVDLPENFVSEPRRRGRVSRWRKRVEEEQRPQNRGIVTTSAQNYRSRAHALVWRGHEDSVDSRGLSSRLFSEAKRPYLSAEQRANISAGVQGFVRFDDSVVPRPTIFHVDFTADEIKALRNLCRRVLGLSSGSRKQDLAKDLRKQLKKHRGDIVKVLDAIRSESELSHRNRTDVERFLHDLVNHKVAGNPSILALKRDKYDLHGELARSSQINSLLFARETSGNRGMALRAPLNFPNEFVKCREDELELRREWTDCAGDIATIAWVSNDGFICGTTEHSDAHNQQYNKPGNLVLGSCSQGTLRAYPDHRIVRPVVEKGENSTDAMRQSQDPWLYSSVVSSDYDDVHGRAFTSGFDRKVKVWKVDPSGSSMVLLGEWSHGGNVNFVAASNPIQTLDCWALDINELTVMPISFGSCYITAGCTDGITYVWDTAQGDKPIHTLRHGEPIEEFRGDREHEDVGVKFTAWGRTLDRFYTGSSDGVVKVWNLPDRTLGVVQGPNYVETGLYRREAHLDEDPRLPLKASFNGLQQETRRQFSEGVRRYLSPLRSITKESFLKAKEAHFTNLPLDFSVDLLEEETKQALEAEGVDWQLNEGTLDLVYEDDENDNEDLVSSGANGSDIDEF
